Data on 1 molecule can be found in patent publication US20060269536A1.

Protein sequences, listed by entry. Tags and fused reporters are not part of them. Residues count along the entry.
UniProt P20151, residues 25-261: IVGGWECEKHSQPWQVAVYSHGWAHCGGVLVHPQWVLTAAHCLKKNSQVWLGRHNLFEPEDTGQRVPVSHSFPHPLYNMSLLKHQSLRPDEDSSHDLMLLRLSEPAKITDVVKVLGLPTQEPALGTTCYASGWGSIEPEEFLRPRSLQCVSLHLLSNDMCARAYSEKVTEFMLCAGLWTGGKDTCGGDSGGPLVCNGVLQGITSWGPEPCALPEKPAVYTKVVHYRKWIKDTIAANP

No constants are given. Whether binding was seen depends on the method and setting. Some results given as binding are weak or reduced against the parent protein; the word gives no strength.

In test [1] the target is human glandular kallikrein hK2 (human) (UniProt P20151). Description: Western blot of complex formation (FIG. 3). On the technique in general: In western blotting, separated proteins are transferred to a membrane and probed.
The target is the same in test [2]. Description: Western blot, anti-hK2 antibody, 3 h at 37° C., I:E 100:1 (FIG. 3A).

B1: rACTWT (recombinant wild type α1-antichymotrypsin) (protein, human)
chain: HHHHHHNSPLDEENLTQENQDRGTHVDLGLASANVDFAFSLYKQLVLKAPDKNVIFSPLSISTALAFLSLGAHNTTLTEILKGLKFNLTETSEAEIHQSFQHLLRTLNQSSDELQLSMGNAMFVKEQLSLLDRFTEDAKRLYGSEAFATDFQDSAAAKKLINDYVKNGTRGKITDLIKDLDSQTMMVLVNYIFFKAKWEMPFDPQDTHQSRFYLSKKKWVMVPMMSLHHLTIPYFRDEELSCTVVELKYTGNASALFILPDQDKMEEVEAMLLPETLKRWRDSLEFREIGELYLPKFSISRDYNLNDILLQLGIEEAFTSKADLSGITGARNLAVSQVVHKAVLDVFEEGTEASAATAVKITLLSALVETRTIVRFNRPFLMIIVPTDTQNIFFMSKVTNPKQA
For B1, the binding entry in test [1] and in test [2] was “binds” throughout.
